# Measurements from PubChem BioAssay (Tox21).
# Values joined by “and” are separate entries in the source; they are usually repeats but may differ in a detail not shown here. Equal values may be shown once. Inconclusive means that the source gave no clear call. Such entries were picked first, then a sample of the others. Potencies beside an inconclusive call are fits to weak or partial responses and may not hold up. Active and inactive are the calls of the source. The call rests on the fitted dose curve.
# Experiment: p53 small molecule agonists, cell-based qHTS assay: qHTS cell viability counter screen (AID 1963581); further: nearly all actives have a fitted effect of over 45% in size
# Conditions: p53RE-bla HCT-116 viability, ATP luminescence, 16 h; series mostly up to 66 µM
# From the text: National Center for Advancing Translational Sciences [NCATS]
# Division of Preclinical Innovation [DPI]
# U.S. Environmental Protection Agency [EPA]
# National Institutes of Environmental Health Sciences [NIEHS]
# National Toxicology Program [NTP]
# U.S. Food and Drug Administration [FDA]
# p53, a tumor suppressor protein, is activated following cellular insult, including DNA damage and other cellular stresses. The activation of p53 regulates cell fate by inducing DNA repair, cell cycle arrest, apoptosis, or cellular senescence. The activation of p53, therefore, is a good indicator of DNA damage and other cellular stresses. The CellSensor p53RE-bla HCT-116 cell line (Invitrogen) contains a stably integrated beta-lactamase reporter gene under control of the p53 response elements. The activation of the reporter gene under culture conditions can be detected by fluorescence intensity. This cell line was used to screen the Tox21 compound library in a 1536-well plate format and to identify agonists that activate the p53 signaling pathway. The cytotoxicity of the Tox21 compound library against the p53 RE-bla HCT-116 cell line was tested in parallel by measuring the intra cellular ATP content in the same wells.
# Tox21 Assay Protocol Summary:
# The p53RE-bla cells were dispensed at 4,000 cells/5 ul/well in 1536-well black wall/clear bottom plates using a Multidrop dispenser. After the assay plates were incubated at a 37 C/5% CO2 incubator for 5 hours, 23 nL of compounds dissolved in DMSO, positive controls or DMSO only was transferred to the assay plate by a pin tool. The plates were incubated at 37 C for 16 hours. After 1 uL of LiveBLAzerTM B/G FRET substrate was added using a Flying Reagent Dispenser, the plates were incubated at room temperature for 2 hours, and fluorescence intensity was measured by an Envision plate reader. For cell viability readout that measures cytotoxicity, 4 ul/well of CellTiter-Glo reagent was added into the assay plates using a Flying Reagent Dispenser. After 30 min incubation at room temperature, the luminescence intensity in the plates was measured using a ViewLux plate reader.
# Potency means the concentration at half of the fitted maximal effect.
row,Compound,Potency
1,CCCc1c(OCCCOc2ccc(OCC(=O)O)cc2)ccc(C(C)=O)c1O,"inconclusive: 51.3 µM [cytotoxic, single point]"
2,CCCCCCCCCC[N+](C)(CCCCCCCCCC)CCC[Si](OC)(OC)OC,"inconclusive: 40.8 µM [cytotoxic, partial curve, poor fit]"
3,CCCCCCCC(=O)OCC(O)CO (stereo not given),"inconclusive: 7.93 µM [rising, single point]"
4,CC(=O)OCC(=O)[C@@]1(OC(C)=O)[C@@H](C)C[C@H]2[C@@H]3C[C@H](F)C4=CC(=O)C=C[C@]4(C)[C@@]3(F)[C@@H](O)C[C@@]21C,inactive
5,O=C1OC(=O)c2c(Cl)c(Cl)c(Cl)c(Cl)c21,"inconclusive: 4.58 µM [cytotoxic, single point]"
6,NC(=O)C(=O)N/N=C/c1ccc([N+](=O)[O-])o1,"inconclusive: 17.8 µM [rising, partial curve, poor fit]"
7,CCO[Si](CCCN)(OCC)OCC,"inconclusive: 0.163 µM [rising, single point]"
8,Cc1ncc([C@@H](CCCCCCc2ccc3c(n2)NCCC3)CC(=O)O)cn1,"inconclusive: 0.0032 µM [rising, full curve, poor fit]"
9,CCCCCCCCCCCCCCCCCCOCC(O)CO (stereo not given),inactive
10,CC[N+](CC)(CC)CCOc1ccc(/C=C/c2ccccc2)cc1,"inconclusive: 14.1 µM [rising, partial curve, poor fit]"
11,CN(C)/N=N/c1nc[nH]c1C(N)=O,inactive
12,Nc1ccc2cc3ccc(N)cc3nc2c1,"inconclusive: 40.8 µM [rising, single point]"
13,COc1ccc2c(c1)c1c3n2CCN(C)C3=NCC1,"inconclusive: 0.89 µM [cytotoxic, single point]"
14,CCCCCCCCCCCCN1CCCCCC1=O,"inconclusive: 0.162 µM [cytotoxic, single point]"
15,CCc1cc(Cc2cc(CC)c(N)c(CC)c2)cc(CC)c1N,"inconclusive: 45.8 µM [cytotoxic, single point]"
16,O=C1C=CC(=O)N1c1cccc(N2C(=O)C=CC2=O)c1,"inconclusive: 51.3 µM [cytotoxic, single point]"
17,CCCCc1oc2ccc(NS(C)(=O)=O)cc2c1C(=O)c1ccc(OCCCN(CCCC)CCCC)cc1,inconclusive: 22.3 µM [cytotoxic]
18,O=c1cc(-c2ccccc2)oc2ccc3ccccc3c12,"inconclusive: 12.9 µM [cytotoxic, full curve]"
19,CN(C)CCOC(c1ccccc1)c1ccccc1,"inconclusive: 3.26 µM [rising, full curve] and inconclusive: 5.13 µM [rising, full curve]"
20,COC(C)COC(C)COC(C)CO (stereo not given),"inconclusive: 32.4 µM [rising, partial curve, poor fit]"

# As a short view, some entries already given:
row,Compound,Potency
10,CC[N+](CC)(CC)CCOc1ccc(/C=C/c2ccccc2)cc1,"inconclusive: 14.1 µM [rising, partial curve, poor fit]"
11,CN(C)/N=N/c1nc[nH]c1C(N)=O,inactive
12,Nc1ccc2cc3ccc(N)cc3nc2c1,"inconclusive: 40.8 µM [rising, single point]"
13,COc1ccc2c(c1)c1c3n2CCN(C)C3=NCC1,"inconclusive: 0.89 µM [cytotoxic, single point]"
14,CCCCCCCCCCCCN1CCCCCC1=O,"inconclusive: 0.162 µM [cytotoxic, single point]"
15,CCc1cc(Cc2cc(CC)c(N)c(CC)c2)cc(CC)c1N,"inconclusive: 45.8 µM [cytotoxic, single point]"
16,O=C1C=CC(=O)N1c1cccc(N2C(=O)C=CC2=O)c1,"inconclusive: 51.3 µM [cytotoxic, single point]"

# Remaining list, next part

row,Compound,Potency
1,Clc1cc(Cl)c(-c2c(Cl)c(Cl)cc(Cl)c2Cl)cc1Cl,"inconclusive: 22.3 µM [rising, single point]"
2,COC(=O)C1CCC(C(=O)OC)CC1 (stereo not given),"inconclusive: 29.2 µM [rising, partial curve, poor fit]"
3,O=C[C@@H](O)[C@H](O)[C@H](O)CO,inactive
4,CC(C)(C)NSc1nc2ccccc2s1,"inconclusive: 0.415 µM [cytotoxic, single point]"
5,CN1[C@@H]2CC[C@H]1CC(OC(=O)c1c[nH]c3ccccc13)C2 (stereo not given in full),"inconclusive: 5 µM [rising, partial curve, poor fit]"
6,CN(c1nccc(=O)[nH]1)C1CCN(c2nc3ccccc3n2Cc2ccc(F)cc2)CC1,"inconclusive: 22.3 µM [cytotoxic, single point]"
7,Oc1cc2ccccc2c2ccccc12,active: 10.2 µM
8,Cc1ccc(C(=O)C(=O)O)cc1C,inactive
9,CC(C)(Oc1ccc(CCNC(=O)c2ccc(Cl)cc2)cc1)C(=O)O,"inconclusive: 5.13 µM [rising, full curve, poor fit]"
10,CC(=O)Nc1ccc(C)cc1C,inactive
11,NNc1nncc2ccccc12,"inconclusive: 12.2 µM [rising, single point]"
12,CO/N=C(/C(=O)N[C@@H]1C(=O)N2C(C(=O)O)=C(COC(N)=O)CS[C@H]12)c1ccco1,inactive
13,NC(=O)COCCN1CCN(C(c2ccccc2)c2ccc(Cl)cc2)CC1 (stereo not given),"inconclusive: 5.61 µM [cytotoxic, single point]"
14,[Cl][Bi]([Cl])([c]1ccccc1)([c]1ccccc1)[c]1ccccc1,active: 9.07 µM
15,Brc1cc(Oc2cc(Br)c(Br)c(Br)c2Br)c(Br)c(Br)c1Br,"inconclusive: 3.65 µM [cytotoxic, full curve]"
16,Nc1ccc2c3c(cccc13)-c1ccccc1-2,"inconclusive: 41.2 µM [rising, single point]"
17,CCOC(=O)C(=O)OCC,"inconclusive: 5.76 µM [rising, partial curve]"
18,C[C@H]1[C@H]2CC[C@H]3[C@@H]4CC=C5C[C@@H](N(C)C)CC[C@]5(C)[C@H]4CC[C@]23CN1C,"inconclusive: 4.46 µM [rising, full curve, poor fit]"
19,C=C(C)C1CCC(C)CC1O (stereo not given),"inconclusive: 0.0646 µM [rising, full curve, poor fit]"
20,Cc1cc(Cc2ccc(N)c(C)c2)ccc1N,"inconclusive: 45.8 µM [rising, single point]"
